In publication PMC11764357:
No constants are given. Whether binding was seen depends on the method and setting. In cells and extracts the contact can be indirect. Some binding calls cover weakened binding; strength is not graded here.

Key:
[1] = molecular target: T1, ARHGEF7 (mouse (endogenous in primary cultured neurons)) (UniProt Q9ES28); assay: co-IP; endogenous proteins; crude neuronal lysates as well as synaptosomal fractions; immunoblot for STIL
T1 sequence: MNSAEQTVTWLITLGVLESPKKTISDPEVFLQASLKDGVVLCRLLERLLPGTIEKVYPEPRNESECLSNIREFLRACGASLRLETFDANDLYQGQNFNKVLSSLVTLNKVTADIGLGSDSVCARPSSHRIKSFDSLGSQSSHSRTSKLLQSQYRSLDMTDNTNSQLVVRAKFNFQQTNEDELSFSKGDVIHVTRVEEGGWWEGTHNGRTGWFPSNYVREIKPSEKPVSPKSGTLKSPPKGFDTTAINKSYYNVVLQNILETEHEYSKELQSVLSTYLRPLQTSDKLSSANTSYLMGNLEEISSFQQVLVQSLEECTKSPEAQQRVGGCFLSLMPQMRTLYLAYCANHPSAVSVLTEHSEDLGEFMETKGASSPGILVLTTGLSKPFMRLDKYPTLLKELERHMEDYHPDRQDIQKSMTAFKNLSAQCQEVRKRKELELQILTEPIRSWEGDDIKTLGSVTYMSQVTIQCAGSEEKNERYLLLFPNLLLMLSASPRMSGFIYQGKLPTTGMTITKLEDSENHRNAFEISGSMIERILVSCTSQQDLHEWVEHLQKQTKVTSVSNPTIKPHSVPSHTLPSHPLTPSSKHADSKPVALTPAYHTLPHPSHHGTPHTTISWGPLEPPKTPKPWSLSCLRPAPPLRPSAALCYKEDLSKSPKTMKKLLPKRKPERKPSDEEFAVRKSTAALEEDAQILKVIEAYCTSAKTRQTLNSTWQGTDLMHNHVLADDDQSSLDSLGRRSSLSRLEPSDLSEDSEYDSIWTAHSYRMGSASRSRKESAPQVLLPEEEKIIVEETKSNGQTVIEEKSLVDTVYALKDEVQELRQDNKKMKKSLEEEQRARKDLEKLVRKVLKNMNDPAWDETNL

[2] = molecular target: T1, ARHGEF7 (mouse (endogenous in primary cultured neurons)); assay: proximity ligation; Duolink in situ PLA kit on fixed cultured mouse hippocampal neurons with antibodies against STIL and ARHGEF7; phalloidin staining afterwards; with and without cLTP induction before fixation

binding [1]: binds weakly
binding [2]: binds
B1: STIL (protein, UniProt Q60988 1-1262)
chain: MNTRFPSSKMVPFHFPPSKLALWNPMPIGECIYLHLSYYRKPKLMVTEKAIRLAYRHAKQNKKNVPCFLLGSLTVDEDEEGVTLTIDRFDPGREIPECLERTPTASLPGDFLIPCRVHIQGLGSRDVIVHNADDFSSALKALQYHVCSKDFLDCGKLLCLRAQITPRESLDGVDFNLQWTAVTLANSFKCVPVKPIPIIPTALARNLSSNLNISQVQGTYKHGYITMDETRKLLLLLQSDPKVSSLPLVGIWLAGIIHVYSPQVWACCLRYMFSSSIQERVFSESGNFIIVLYSLTHKEPEFYECLPCESRTPDLQFQLLTNKETLHLFNNVEPSGKNPIHFELSAESQDAEAEAEVLSKISKTLPVKRSSQKLSPGKIPINKHDTDLEDEDFSPRPIPSPHPVSQKISKVQPSVPELSLVLDNNFTESSNQSNPLEMMTVENPLLIKPSQPELCDAKHSSEATTGEPFRRGPTNQLSQDTALRQSRGKQSSTCKKESLQFRNTNAKPSLSVPSPDVAEKLQAVSAGSMQKEDYPVRPSTLDSRQPSLAPQAQPHNLVFSTHNSTRPMELQVPTPSLPSYYPTNVCSCCQHHGHIQYSTINSWQGNTVGSIQDLRSESLPKHAFFHSSGCPSLCPNAIYSSSSPVSMKQGGMGAYSPHSNGEPSPVAGPSHVDSCVPHPCAMCMHTPNTAPDNGMMGLSPDAYRFVTEQDRQLRLLQAQIQRLLEAQSLDPGSHKTVATVEDTVKAAKQMELVSMEAQSSPGLHMRKSVSIAVSTGASLFWNAAGDDQEPDSQPKQDDTKISSEDMNFSVDINNEATSLPGSASSLKAVDIPSFEESNLAVEEVNQPLPESNSSSEQSKEPGVPVFFPNALLAESVSMCLQTAPTEGASNSTELPQGTKDEPYRPSDNQKIYQDLLGQVNHLLSNASQETEEPPTKAVVTNRECAKTQNTHHARKKRHNSGLVDKDCVLSATIKQLRSLGVKIDSPTKVKKNEQKVDHASVLACISPEAVISGLNYMSFGNVGMSSLSPTGVDLSMEANAIALKYLSENQLSQLSLARSKQNNGDSSVGLLHINSDRSTVGLSLVSPSNMSFATKKYMKRYGLLQSSDNSEDEEEPPSHADSESDHVLNRNPACRPVQCGHEKEPSWNACEIAQCSDCGSADTRTDVPVLRNITNQAVQPRATEHLNEDSAISLRNLKPNPAMNLRTGKAEFTHHPEKENERDIAVFPGTLPSPETLKQMNSMDSVGTFLDVKRLRQLPKLF
